Data reported in PMC6155021, “Ancient and modern anticonvulsants act synergistically in a KCNQ potassium channel binding pocket” (Nature Communications, 2018).

Biological target: KCNQ1 (Homo sapiens, UniProt P51787)
Conditions: IVA 500 µM
Excerpt: cRNA transcripts encoding human KCNA1, KCNQ1, KCNQ2, KCNQ3, KCNQ4, or KCNQ5 were generated by in vitro transcription using the T7 polymerase message machine kit (Thermo Fisher Scientific), after vector linearization, from cDNA sub-cloned into plasmids incorporating X. laevis β-globin 5′ and 3′ UTRs flanking the coding region to enhance translation and cRNA stability. cRNA was quantified by spectrophotometry. Mutant cDNAs were generated by site-directed mutagenesis using a QuikChange kit according to manufacturer’s protocol (Stratagene, San Diego, CA) and corresponding cRNAs prepared as above. Defolliculated stage V and VI X. laevis oocytes (Ecocyte Bioscience, Austin, TX) were injected with Kv channel α subunit cRNAs (10 ng total per oocyte). Oocytes were incubated at 16 °C in Barth’s saline solution (Ecocyte) containing penicillin and streptomycin, with daily washing, for 3–5 days prior to two-electrode voltage-clamp (TEVC) recording.
Oocytes were placed in a small-volume oocyte bath (Warner) and viewed with a dissection microscope. Chemicals were sourced from Sigma. […] Currents were recorded in response to pulses between −80 and +40 mV at 20 mV intervals, or a single pulse to +40 mV, from a holding potential of −80 mV, to yield current–voltage relationships, current magnitude, and for quantifying activation rate. […]

sensitivity of KCNQ1: insensitive
SMILES: CC(C)CC(=O)O [IVA, isovaleric acid]
